By UniProt entry, the sequences of proteins in these tests, tags left out.
UniProt Q91VJ4: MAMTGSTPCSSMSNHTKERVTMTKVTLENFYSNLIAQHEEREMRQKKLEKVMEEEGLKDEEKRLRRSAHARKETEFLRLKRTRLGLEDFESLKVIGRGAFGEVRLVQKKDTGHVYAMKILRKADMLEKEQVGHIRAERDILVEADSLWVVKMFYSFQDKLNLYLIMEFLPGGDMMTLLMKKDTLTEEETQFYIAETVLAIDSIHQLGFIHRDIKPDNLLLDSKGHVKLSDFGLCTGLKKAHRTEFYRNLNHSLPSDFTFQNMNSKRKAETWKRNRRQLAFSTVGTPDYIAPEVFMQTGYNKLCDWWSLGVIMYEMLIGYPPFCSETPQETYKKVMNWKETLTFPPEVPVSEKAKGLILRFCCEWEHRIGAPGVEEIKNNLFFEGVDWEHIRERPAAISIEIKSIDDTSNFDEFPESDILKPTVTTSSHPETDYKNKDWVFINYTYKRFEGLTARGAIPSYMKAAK

According to publication PMC12607517:

Target: T1, FLAG-His-tagged MerTK (mouse) (UniProt Q60805)
T1 sequence: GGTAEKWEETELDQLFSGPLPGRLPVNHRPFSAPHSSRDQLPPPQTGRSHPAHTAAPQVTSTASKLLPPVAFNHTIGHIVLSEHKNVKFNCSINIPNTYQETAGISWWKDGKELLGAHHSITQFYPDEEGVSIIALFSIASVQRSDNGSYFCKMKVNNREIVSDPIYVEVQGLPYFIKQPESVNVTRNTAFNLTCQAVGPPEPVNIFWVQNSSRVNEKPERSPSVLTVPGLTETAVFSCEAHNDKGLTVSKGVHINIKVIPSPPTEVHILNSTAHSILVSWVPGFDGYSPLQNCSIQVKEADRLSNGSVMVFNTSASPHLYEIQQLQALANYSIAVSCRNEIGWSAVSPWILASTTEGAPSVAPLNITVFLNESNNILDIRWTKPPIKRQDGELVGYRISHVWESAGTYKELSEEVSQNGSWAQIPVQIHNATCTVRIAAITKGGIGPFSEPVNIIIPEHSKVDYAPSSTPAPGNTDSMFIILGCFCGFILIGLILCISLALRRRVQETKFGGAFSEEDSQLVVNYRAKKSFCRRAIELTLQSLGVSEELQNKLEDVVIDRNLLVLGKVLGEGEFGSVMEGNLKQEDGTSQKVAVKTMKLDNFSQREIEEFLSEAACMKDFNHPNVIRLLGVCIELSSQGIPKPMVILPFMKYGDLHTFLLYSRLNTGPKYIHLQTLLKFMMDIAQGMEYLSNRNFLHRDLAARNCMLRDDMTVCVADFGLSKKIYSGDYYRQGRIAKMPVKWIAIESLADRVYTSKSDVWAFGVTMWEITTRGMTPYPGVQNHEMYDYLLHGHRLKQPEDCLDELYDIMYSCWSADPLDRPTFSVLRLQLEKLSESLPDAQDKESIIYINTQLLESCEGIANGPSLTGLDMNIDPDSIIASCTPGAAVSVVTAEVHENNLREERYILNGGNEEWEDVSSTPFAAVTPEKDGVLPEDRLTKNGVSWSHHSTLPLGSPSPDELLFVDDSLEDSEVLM
Assay: affinity purification with mass spectrometry; FLAG-His-tagged MerTK expressed with Ras (G12V) in NIH-3T3; RIPA lysate; anti-FLAG M2 gel, FLAG peptide elution, then Ni-NTA agarose, imidazole elution; SDS-PAGE, tryptic digestion, MALDI-TOF, Mascot

Substance: STK38 (endogenous, NIH-3T3) (from UniProt Q91VJ4 1-465) (enzyme)
- binding: binds

No constants are given. Whether binding was seen depends on the method and setting. Binding seen in cells or lysates may run through a third protein. These calls come from enrichment with a bait or labelling near it, and not all partners need be listed. Sequences can lack the tags named with a protein.
